Measured values published in PMC12092617.
No constants are given. Whether binding was seen depends on the method and setting. In cells and extracts the contact can be indirect. Some entries that bind do so weakly or less than the wild type. For some of these results: Where a sequence is shown, tags or fusion partners need not be part of it. Blank lines part the entries; values can stand above or below the molecule they belong to.

Experiments:
[1] = molecular target: T1, mCherry-tagged SLC25A10 S3 domain (amino acids 191-287) (UniProt Q9UBX3); experiment: co-IP; HEK 293T cells co-transfected with HA-p62 and mCherry-tagged full-length or truncated SLC25A10, immunoprecipitated
T1 sequence: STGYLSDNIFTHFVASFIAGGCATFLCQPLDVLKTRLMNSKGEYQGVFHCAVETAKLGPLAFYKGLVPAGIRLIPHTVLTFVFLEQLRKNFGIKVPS

Flag-tagged SLC25A10 = molecular target: T2, Flag-tagged SLC25A10 (UniProt Q9UBX3); experiment: co-IP; HEK293T cells overexpressing Flag-tagged SLC25A10 and Myc-tagged p62; immunoprecipitates analysed by Western blot with anti-Myc and anti-Flag antibodies
T2 sequence: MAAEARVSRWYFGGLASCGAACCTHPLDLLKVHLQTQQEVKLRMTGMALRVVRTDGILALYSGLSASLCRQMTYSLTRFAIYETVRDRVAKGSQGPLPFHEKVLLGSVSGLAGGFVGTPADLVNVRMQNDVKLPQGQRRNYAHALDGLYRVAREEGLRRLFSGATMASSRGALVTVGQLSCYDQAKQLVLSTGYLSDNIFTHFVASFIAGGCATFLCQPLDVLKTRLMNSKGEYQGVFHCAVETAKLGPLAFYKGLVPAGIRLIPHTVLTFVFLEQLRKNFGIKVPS

[2] = molecular target: T3, SLC25A10 (mitochondrial dicarboxylate carrier) (human (endogenous in PC-3 and 22RV1)) (UniProt Q9UBX3); experiment: co-IP; PC-3 and 22RV1 lysates (50 mM Tris-HCl, 150 mM NaCl, 1% NP-40, 1 mM EDTA); IP with anti-SLC25A10 antibody or, reciprocally, p62 antibody (control IgG), protein A/G agarose, 4 °C overnight; Western blot
T3 sequence: T2 sequence

[3] = molecular target: SQSTM1 (p62), endogenous (human (endogenous in PC-3 and 22RV1)) (UniProt Q13501); experiment: as above

binding [1]: binds
Molecule: HA-tagged p62 (from UniProt Q13501 1-440)

binding (Flag-tagged SLC25A10): binds
Molecule: Myc-tagged p62 (from UniProt Q13501 1-440)

binding [2]: binds
Molecule: SQSTM1 (p62), endogenous (from UniProt Q13501 1-440)

binding [3]: binds
B1: SLC25A10 (mitochondrial dicarboxylate carrier) (protein, UniProt Q9UBX3 1-287)
chain: T2 sequence
